{"sequences": {"note": "Protein sequences, listed by entry. Tags and fused reporters are not part of them. Lines headed by an entry give the natural chain unless they say otherwise; changes in a name come on top.", "UniProt Q01638": "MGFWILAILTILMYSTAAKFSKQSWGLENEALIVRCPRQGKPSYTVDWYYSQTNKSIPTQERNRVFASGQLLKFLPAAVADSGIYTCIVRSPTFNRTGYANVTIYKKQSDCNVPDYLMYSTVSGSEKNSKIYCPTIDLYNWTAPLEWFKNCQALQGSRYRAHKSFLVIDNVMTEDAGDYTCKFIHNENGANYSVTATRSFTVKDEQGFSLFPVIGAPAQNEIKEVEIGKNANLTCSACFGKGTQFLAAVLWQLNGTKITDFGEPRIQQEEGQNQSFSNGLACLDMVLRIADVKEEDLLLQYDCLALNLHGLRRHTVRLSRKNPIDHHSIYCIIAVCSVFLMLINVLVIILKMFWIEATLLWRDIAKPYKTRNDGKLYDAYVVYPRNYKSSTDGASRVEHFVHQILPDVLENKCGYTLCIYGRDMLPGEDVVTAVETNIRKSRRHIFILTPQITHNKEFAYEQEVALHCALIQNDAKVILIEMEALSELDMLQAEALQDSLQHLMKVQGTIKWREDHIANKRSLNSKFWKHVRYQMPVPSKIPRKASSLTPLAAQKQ"}, "source": "PubChem BioAssay AID1259354", "about": "(Paczesny and Yang Labs, IUPUI and University of Michigan, 2018)", "note": "Among all 78,000 compounds or so, about 1,800 (2.3%) were called active. The inconclusive results got no clear call from the source; some entries with a clear call stand among them for comparison. No stated cut-off is given here; in the data, active means inhibition above about 30%; inconclusive means mostly about 10% to 28%; inactive means weaker than that."}
{"target": "Interleukin-1 receptor-like 1 (Homo sapiens) (UniProt Q01638)", "assay": "blocks human ST2 binding to IL-33, primary screen, biochemical, AlphaLISA (AID 1259354)", "conditions": "AlphaLISA ST2-Fc/biotin-IL-33 interaction, 1 h; at 17 µM, hits give high values"}
{"smiles": "COCCn1cc(C(=O)NCC2(c3ccccc3)CCCC2)c(=O)c(C(=O)N2CCCCC2)c1", "inhibition": "inconclusive: 18%"}
{"smiles": "Cc1cc(Br)c(O)c(C=NCCNC(=O)c2nonc2N)c1", "inhibition": "inconclusive: 11%"}
{"smiles": "O=C(CCCn1c(=O)c2sccc2n(Cc2ccc([N+](=O)[O-])cc2)c1=O)NCc1ccco1", "inhibition": "inactive"}
{"smiles": "COc1cccc(/C=C(\\C#N)c2nc3ccccc3s2)c1OC", "inhibition": "inconclusive: 24%"}
{"smiles": "O=C(Cn1c(=O)n(-c2cc(F)ccc2F)c(=O)c2sccc21)NC1CCCC1", "inhibition": "inactive"}
{"smiles": "N#Cc1ccc(NC(=S)N[C@H]2CO[C@H]3[C@@H]2OC[C@H]3OC(=O)NC2CCCCC2)cc1", "inhibition": "inconclusive: 17%"}
{"smiles": "CC(NCC(=O)Nc1ccc(Cl)cc1F)c1nc(-c2ccccn2)no1", "note": "(stereo not drawn)", "inhibition": "inconclusive: 14%"}
{"smiles": "O=C(O)C1Sc2c(sc(=O)n2Cc2ccc(Cl)cc2)C2c3ccccc3OC(=O)C12", "note": "(stereo not drawn)", "inhibition": "inconclusive: 15%"}
{"smiles": "O=C(c1n[nH]c(=O)c2ccccc12)N1CCC2(CCCN(Cc3ccc(F)c(F)c3)C2)C1", "note": "(stereo not drawn)", "inhibition": "inactive"}
{"smiles": "O=C(COc1ccccc1F)Nc1c(C(=O)Nc2ccc(F)cc2)oc2ccccc12", "inhibition": "inactive"}
{"smiles": "O=C(NCc1cccs1)c1ccc2c(c1)ncn2C1CCCC1", "inhibition": "inconclusive: 14%"}
{"smiles": "CCNC(=O)C1CCN(C(=O)c2coc(COc3ccc4ncccc4c3)n2)C1", "note": "(stereo not drawn)", "inhibition": "inconclusive: 16%"}
{"smiles": "Cc1cccc(-c2nnc(-c3nc(NCCN4CCCC4)c4ccccc4n3)o2)c1", "inhibition": "inconclusive: 11%"}
{"smiles": "COc1ccc(Cc2nnc(Nc3ccc(C(C)C)cc3)[nH]c2=O)cc1", "inhibition": "inactive"}
{"smiles": "CC1=C[C@@H](CN(C)Cc2cccnc2)[C@H](C(C)C)C[C@H]1Cc1nnc(-c2cncn2C)o1", "inhibition": "inconclusive: 12%"}
{"smiles": "O=C(c1cc([N+](=O)[O-])ccc1N1CCOCC1)N1CCOCC1", "inhibition": "inactive"}
{"smiles": "CCO[C@H]1COC[C@@H]1NC(=O)C1(c2ccccc2F)CC1", "inhibition": "inconclusive: 10%"}
{"smiles": "COc1cccc(C(=O)Nc2ccc([N+](=O)[O-])cc2)c1", "inhibition": "inconclusive: 10%"}
{"smiles": "N#CC1=C([S-])N[C@@](O)(c2ccccc2)[C@H]([n+]2cccc3cc(Cl)ccc32)[C@H]1c1cccnc1", "inhibition": "inconclusive: 14%"}
{"smiles": "COc1ccc2nc3sc(C(=O)Nc4cc(Cl)ccc4OC)cc3cc2c1", "inhibition": "inconclusive: 19%"}
{"smiles": "Cc1ccc(NC(=O)c2cccc(Cl)c2)cc1OCc1cc(=O)n2cccc(C)c2n1", "inhibition": "inconclusive: 15%"}
{"smiles": "Oc1oc(-c2ccccc2F)nc1C=Nc1ccccc1Cl", "inhibition": "inconclusive: 26%"}
{"smiles": "OCCSc1ccc(-c2ccc(SCCO)cc2)cc1", "inhibition": "inconclusive: 16%"}
{"smiles": "Cc1ncsc1CCC(=O)NC(C)Cc1cnccn1", "note": "(stereo not drawn)", "inhibition": "inactive"}
{"smiles": "COC(=O)C(C)Sc1nc2c(c(=O)n1-c1ccc(Br)cc1)SCC2", "note": "(stereo not drawn)", "inhibition": "inconclusive: 24%"}
{"smiles": "Cc1cccc(OCC(=O)Nc2cc(C(F)(F)F)ccc2Cl)c1", "inhibition": "inactive"}
{"smiles": "CN(Cc1ccccc1)C(=O)C[C@@H]1CCNC[C@@H]1Cc1cc(-c2ccc(F)cc2)on1", "inhibition": "inconclusive: 10%"}
{"smiles": "Cc1c(C(=O)N(C)C)sc2[nH]c(=O)n(-c3ccc(F)cc3)c(=O)c12", "inhibition": "inactive"}
{"smiles": "Cc1nc(NC(N)=NS(=O)(=O)c2ccc([N+](=O)[O-])cc2)nc2ccccc12", "inhibition": "inconclusive: 11%"}
{"smiles": "Cc1cccn2c(=O)c3cc(C(=O)NC4CCCCC4)n(C)c3nc12", "inhibition": "inconclusive: 16%"}
{"smiles": "CN(Cc1ccccc1)Cc1cn([C@H]2CO[C@H]3[C@@H]2OC[C@@H]3NCC2CC2)nn1", "inhibition": "inconclusive: 14%"}
{"smiles": "CC1=NN(c2ccc(C)cc2)C(=O)/C1=C/c1ccc(F)cc1", "inhibition": "inconclusive: 13%"}
{"smiles": "Cc1cccc(C)c1NC(=O)c1c(F)c(F)c(F)c(F)c1F", "inhibition": "inconclusive: 10%"}
{"smiles": "CCOc1ccc(/C=C/c2nc3ccccc3[nH]2)cc1", "inhibition": "inconclusive: 19%"}
{"smiles": "CC1=CC(=O)C=C(C)C1=NOS(=O)(=O)c1ccc(Cl)cc1", "inhibition": "inconclusive: 29%"}
{"smiles": "Cc1nc(NCc2ccc(Cl)cc2)c2c(C)c(C)sc2n1", "inhibition": "inactive"}
{"smiles": "O=C(CNS(=O)(=O)c1cccs1)NC(c1ccccc1)c1ccccc1", "inhibition": "inconclusive: 10%"}
{"smiles": "COc1ccc2c(=O)c(-c3ccccc3)c(C)oc2c1C", "inhibition": "inactive"}
{"smiles": "CC1CCN(c2c([N+](=O)[O-])nn(-c3ccccc3)[n+]2[O-])CC1", "inhibition": "inconclusive: 19%"}
{"smiles": "CC1CCc2onc(C(=O)Nc3cccc(Cl)c3)c2C1", "note": "(stereo not drawn)", "inhibition": "inactive"}
{"smiles": "CSc1ccccc1OCc1cc(C(=O)NCCc2nc(C)c(C)s2)no1", "inhibition": "inconclusive: 21%"}
{"smiles": "COc1ccccc1N1CCN([C@H]2[C@@H]3OC[C@@H](O3)[C@@H](NCC3CCCCC3)[C@@H]2O)CC1", "inhibition": "inconclusive: 22%"}
{"smiles": "FC(F)(F)C1CN(c2ccc(-c3ccccc3)nn2)CCO1", "note": "(stereo not drawn)", "inhibition": "active: 96%"}
{"smiles": "CC1(C)CC(=O)C2=C(C1)OC(N)=C(C#N)C2c1ccccc1Cl", "note": "(stereo not drawn)", "inhibition": "inconclusive: 15%"}
{"smiles": "O=C(c1cc(C2CC2)on1)N1CCC2(CCCO2)CC1", "inhibition": "inconclusive: 14%"}
{"smiles": "COc1ccc(NC(=O)c2ccc(-c3ccc(-c4noc(C)n4)cc3C)cc2)cc1N1CCN(C)CC1", "inhibition": "inconclusive: 12%"}
{"smiles": "CC(=O)Nc1ccc(N2C(=O)c3c(C)nc4ccccc4c3C2=O)cc1", "inhibition": "inactive"}
{"smiles": "COc1ccc(CN2Cc3[nH]cnc3C[C@H]2c2nc(-c3ccc4c(c3)OCO4)no2)cc1", "inhibition": "inconclusive: 16%"}
{"smiles": "CCSc1nc2c(c(=O)[nH]1)C(c1ccc(C)cc1)C1=C(CC(C)(C)CC1=O)N2", "note": "(stereo not drawn)", "inhibition": "inactive"}
{"smiles": "O=C(C1CCCN1S(=O)(=O)c1cccc2nsnc12)N1CCc2ccccc21", "note": "(stereo not drawn)", "inhibition": "inconclusive: 10%"}
{"smiles": "CCCCNc1ccc(C(=O)OCCN(C)C)cc1", "inhibition": "inconclusive: 25%"}
{"smiles": "Brc1cccc(CN2CCC(N3CCCCC3)CC2)c1", "inhibition": "inconclusive: 10%"}
{"smiles": "COc1ccccc1N1CCN(c2ncc(C(=O)NC3CCCCC3)c3ccccc23)CC1", "inhibition": "inconclusive: 10%"}
{"smiles": "CCOc1ccc2[nH]c(=O)c(CN3CCCCC3c3nc(C)no3)cc2c1", "note": "(stereo not drawn)", "inhibition": "inconclusive: 23%"}
{"smiles": "O=C(c1ccccc1)c1coc2ccc(O)cc12", "inhibition": "inconclusive: 16%"}
{"smiles": "O=C(CN1CCN(c2ncccn2)CC1)Nc1cnc2n1CCCC2", "inhibition": "inconclusive: 15%"}
{"smiles": "COC(=O)C1=C(NC(=O)c2ccc(Cc3ccccc3)cc2)CCS1", "inhibition": "active: 31%"}
{"smiles": "CCCCc1ncc(CN2CCCC(CNS(=O)(=O)c3ccc(OC)cc3)C2)[nH]1", "note": "(stereo not drawn)", "inhibition": "inconclusive: 13%"}
{"smiles": "COc1ccc(CC2CN(Cc3noc(C4CCCC4)n3)CCO2)cc1", "note": "(stereo not drawn)", "inhibition": "inactive"}
{"smiles": "CCN1CCCC(CN(C)C(=O)c2scc3c2OCCO3)C1", "note": "(stereo not drawn)", "inhibition": "inactive"}
{"smiles": "COc1ccc(-c2csc(NC(=O)c3cc4ccccc4oc3=O)n2)c(OC)c1", "inhibition": "inconclusive: 17%"}
{"smiles": "O=C(O)c1ccccc1SC1CC(=O)N(c2cccc(C(F)(F)F)c2)C1=O", "note": "(stereo not drawn)", "inhibition": "inactive"}
{"smiles": "Cc1nnsc1CNC(=O)CCNC(=O)c1ccccc1F", "inhibition": "inconclusive: 14%"}
{"smiles": "Cc1cc(C(=O)N(C)Cc2c(C)noc2C)c2cccc(C)c2n1", "inhibition": "inconclusive: 25%"}
{"smiles": "NC(=O)C1CCN([C@H]2[C@@H]3OC[C@@H](O3)[C@@H](NCc3ccccc3O)[C@@H]2O)CC1", "inhibition": "inconclusive: 11%"}
{"smiles": "CCc1ccc(NC(=O)C2CCCN2S(=O)(=O)c2cc3c(cc2C)NC(=O)CO3)cc1", "note": "(stereo not drawn)", "inhibition": "inactive"}
{"smiles": "CN(C)C1CCCN(C(=O)CSc2cn(C)c3ccccc23)CC1", "note": "(stereo not drawn)", "inhibition": "inactive"}
{"smiles": "COc1cccc(NC(=O)c2cc3cc4cc(OC)ccc4nc3o2)c1", "inhibition": "inconclusive: 11%"}
{"smiles": "COc1ccc(/C=c2\\sc3n(c2=O)CN(c2cccc(C(F)(F)F)c2)CN=3)cc1", "inhibition": "inconclusive: 18%"}
{"smiles": "CCNc1nc(N2CCCC2)nc(N2CCC(Cc3ccccc3)CC2)n1", "inhibition": "active: 57%"}
{"smiles": "CCCN1C(=O)NC(CC(=O)N2CC(c3ccncc3)C2)C1=O", "note": "(stereo not drawn)", "inhibition": "inconclusive: 11%"}
{"smiles": "O=C1/C(=C/C=C/c2ccco2)CC/C1=C\\C=C\\c1ccco1", "inhibition": "active: 96%"}
{"smiles": "CC(C)c1ccccc1NS(=O)(=O)c1ccc([N+](=O)[O-])cc1", "inhibition": "inconclusive: 14%"}
{"smiles": "COCCN(Cc1ccc(C)cc1)Cc1cnc2nccn2c1", "inhibition": "inactive"}
{"smiles": "CN(Cc1cccc2ncccc12)Cc1cnn2cccnc12", "inhibition": "inconclusive: 11%"}
{"smiles": "CC(=O)c1sc2nc(-c3ccc(C)cc3)c(C)cc2c1N", "inhibition": "inconclusive: 22%"}
{"smiles": "COc1ccc(CCNC(=O)CCCCCn2c(=O)[nH]c3ccsc3c2=O)cc1OC", "inhibition": "inconclusive: 15%"}
{"smiles": "CSC1=C(C#N)C(c2ccc(Cl)cc2)C(C(C)=O)=C(C)N1", "note": "(stereo not drawn)", "inhibition": "inconclusive: 13%"}
{"smiles": "Cc1nc2ccc3nc(NC(=O)c4ccccc4Br)sc3c2s1", "inhibition": "inactive"}
{"smiles": "CCCC(C)C(=O)N1CCN(c2ccccc2)CC1", "note": "(stereo not drawn)", "inhibition": "inactive"}
{"smiles": "Cn1nnnc1SCCNC(=O)c1cnn2c1CCCC2", "inhibition": "inconclusive: 15%"}
{"smiles": "CCOC(=O)CSC1=C(C#N)C(c2ccc(F)cc2)CC(=O)N1", "note": "(stereo not drawn)", "inhibition": "inactive"}
{"smiles": "CCOc1ccc(-c2nc3cc(N=Cc4ccccc4O)ccc3o2)cc1", "inhibition": "inconclusive: 11%"}
{"smiles": "CCCc1cc(C(=O)N2CCC3(CC2)CNC(=O)C3)cs1", "inhibition": "inconclusive: 12%"}
{"smiles": "COc1cccc(N2CCN(c3ncnc4c3cnn4-c3ccc(Cl)cc3)CC2)c1", "inhibition": "inactive"}
{"smiles": "O=C(CSc1nc2c(c(=O)n1-c1ccccc1)SCC2)Nc1ccc2c(c1)OCCO2", "inhibition": "inconclusive: 17%"}
{"smiles": "CC(C)Cc1cc(C(=O)N2C[C@@H]3[C@H](C2)[C@H]2CC[C@@H]3O2)on1", "inhibition": "inconclusive: 15%"}
{"smiles": "CN(CC(=O)NCC1CCCN(C)C1)Cc1ccccc1F", "note": "(stereo not drawn)", "inhibition": "inconclusive: 17%"}
{"smiles": "CNC(=O)c1ccc(C)c([N+](=O)[O-])c1", "inhibition": "inactive"}
{"smiles": "CC(=O)N[C@@H]1c2ccccc2C2(CCN(C(=O)/C=C/c3ccccc3F)CC2)[C@H]1OCc1ccccc1", "inhibition": "inconclusive: 17%"}
{"smiles": "CCOC(=O)c1cnc2c(C)c(Cl)ccc2c1NCc1ccco1", "inhibition": "inactive"}
{"smiles": "CC(=O)c1ccc(N2CCN(Cc3ccc(N(C)C)cc3)CC2)cc1", "inhibition": "inconclusive: 15%"}
{"smiles": "CCC(C)OC(=O)C1=C(C)NC2=C(C(=O)C(C(=O)OC)C(C)C2)C1c1ccccc1C", "note": "(stereo not drawn)", "inhibition": "inconclusive: 18%"}
